In the supplement of paper PMC10849652:
The other results are listed elsewhere or left out.

Sequences of proteins named here, by UniProt entry; tags and fusion partners are left off. A change or cut given only in a name is not applied to a line headed by its entry.
UniProt O15226: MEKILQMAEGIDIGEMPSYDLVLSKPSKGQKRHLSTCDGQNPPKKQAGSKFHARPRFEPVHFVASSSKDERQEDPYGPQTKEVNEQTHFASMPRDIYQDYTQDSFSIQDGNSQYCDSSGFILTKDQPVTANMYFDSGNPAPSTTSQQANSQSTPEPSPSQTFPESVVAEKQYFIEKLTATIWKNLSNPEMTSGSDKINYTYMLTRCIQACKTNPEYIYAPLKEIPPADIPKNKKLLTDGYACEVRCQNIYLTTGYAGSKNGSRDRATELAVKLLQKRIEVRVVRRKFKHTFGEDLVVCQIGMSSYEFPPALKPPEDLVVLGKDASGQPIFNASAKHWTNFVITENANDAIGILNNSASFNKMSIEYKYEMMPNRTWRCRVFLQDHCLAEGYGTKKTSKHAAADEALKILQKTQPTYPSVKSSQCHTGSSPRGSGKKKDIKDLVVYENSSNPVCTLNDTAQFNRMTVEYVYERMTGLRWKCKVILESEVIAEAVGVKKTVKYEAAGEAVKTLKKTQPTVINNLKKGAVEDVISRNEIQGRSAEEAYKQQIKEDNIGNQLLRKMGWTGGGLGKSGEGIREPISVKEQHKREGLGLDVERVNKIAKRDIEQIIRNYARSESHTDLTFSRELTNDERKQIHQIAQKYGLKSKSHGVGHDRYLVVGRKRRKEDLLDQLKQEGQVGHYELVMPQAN
UniProt Q92692, whole entry, looked up: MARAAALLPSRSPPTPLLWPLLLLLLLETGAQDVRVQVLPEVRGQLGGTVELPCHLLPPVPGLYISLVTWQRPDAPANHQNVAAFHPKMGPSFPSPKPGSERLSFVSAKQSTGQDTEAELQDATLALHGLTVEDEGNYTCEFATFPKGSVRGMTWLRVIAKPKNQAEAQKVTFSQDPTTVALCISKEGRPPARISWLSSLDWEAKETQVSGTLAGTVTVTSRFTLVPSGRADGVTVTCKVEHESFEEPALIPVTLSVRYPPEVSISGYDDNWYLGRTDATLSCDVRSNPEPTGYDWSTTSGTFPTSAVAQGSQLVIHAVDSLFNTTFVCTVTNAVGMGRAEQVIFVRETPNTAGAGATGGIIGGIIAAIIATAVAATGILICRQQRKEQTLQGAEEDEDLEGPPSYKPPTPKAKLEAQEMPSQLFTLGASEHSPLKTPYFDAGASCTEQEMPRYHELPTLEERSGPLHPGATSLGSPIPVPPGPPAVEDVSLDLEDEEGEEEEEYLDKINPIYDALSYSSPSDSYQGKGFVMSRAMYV
UniProt O95096: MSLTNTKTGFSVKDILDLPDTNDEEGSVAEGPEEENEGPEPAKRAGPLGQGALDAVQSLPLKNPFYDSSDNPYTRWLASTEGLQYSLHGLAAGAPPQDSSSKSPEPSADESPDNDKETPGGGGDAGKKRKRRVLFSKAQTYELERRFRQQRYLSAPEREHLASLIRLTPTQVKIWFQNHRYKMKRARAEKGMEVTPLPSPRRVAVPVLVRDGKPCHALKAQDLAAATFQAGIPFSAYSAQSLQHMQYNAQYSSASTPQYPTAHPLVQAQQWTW
UniProt O14524: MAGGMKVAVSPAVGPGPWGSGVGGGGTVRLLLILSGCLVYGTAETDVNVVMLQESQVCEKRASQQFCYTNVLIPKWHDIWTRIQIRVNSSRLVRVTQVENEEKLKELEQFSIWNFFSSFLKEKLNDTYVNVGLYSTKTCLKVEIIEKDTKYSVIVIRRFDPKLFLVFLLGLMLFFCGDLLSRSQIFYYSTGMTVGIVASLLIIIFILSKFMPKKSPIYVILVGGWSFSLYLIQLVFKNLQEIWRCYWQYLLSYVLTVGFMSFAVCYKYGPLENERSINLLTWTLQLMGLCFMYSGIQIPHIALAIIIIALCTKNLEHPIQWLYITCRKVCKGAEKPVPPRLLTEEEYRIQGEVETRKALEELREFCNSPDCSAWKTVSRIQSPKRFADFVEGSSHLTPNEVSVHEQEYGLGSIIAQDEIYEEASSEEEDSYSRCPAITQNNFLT
UniProt O75438, whole entry, looked up: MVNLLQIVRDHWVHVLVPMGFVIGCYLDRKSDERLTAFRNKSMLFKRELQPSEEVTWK
UniProt Q6P3R8: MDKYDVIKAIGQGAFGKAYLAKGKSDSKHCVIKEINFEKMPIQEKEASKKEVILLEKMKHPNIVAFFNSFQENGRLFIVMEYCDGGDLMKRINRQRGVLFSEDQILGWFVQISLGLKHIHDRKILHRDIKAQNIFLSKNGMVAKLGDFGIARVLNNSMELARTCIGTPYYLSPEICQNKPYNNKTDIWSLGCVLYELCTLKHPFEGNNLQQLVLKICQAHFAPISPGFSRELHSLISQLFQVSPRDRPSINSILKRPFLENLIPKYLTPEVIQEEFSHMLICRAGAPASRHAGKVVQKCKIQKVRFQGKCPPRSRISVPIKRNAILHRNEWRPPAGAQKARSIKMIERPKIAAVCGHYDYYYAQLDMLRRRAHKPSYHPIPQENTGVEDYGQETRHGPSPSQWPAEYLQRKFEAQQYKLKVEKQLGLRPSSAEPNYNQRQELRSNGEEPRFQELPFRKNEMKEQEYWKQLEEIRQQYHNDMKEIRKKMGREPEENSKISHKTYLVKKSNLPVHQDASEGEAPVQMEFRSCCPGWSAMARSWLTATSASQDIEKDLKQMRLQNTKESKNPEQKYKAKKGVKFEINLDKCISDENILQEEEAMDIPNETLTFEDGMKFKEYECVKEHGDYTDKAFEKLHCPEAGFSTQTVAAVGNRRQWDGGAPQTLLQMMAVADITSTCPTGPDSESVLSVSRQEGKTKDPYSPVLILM
UniProt Q0ZGT2: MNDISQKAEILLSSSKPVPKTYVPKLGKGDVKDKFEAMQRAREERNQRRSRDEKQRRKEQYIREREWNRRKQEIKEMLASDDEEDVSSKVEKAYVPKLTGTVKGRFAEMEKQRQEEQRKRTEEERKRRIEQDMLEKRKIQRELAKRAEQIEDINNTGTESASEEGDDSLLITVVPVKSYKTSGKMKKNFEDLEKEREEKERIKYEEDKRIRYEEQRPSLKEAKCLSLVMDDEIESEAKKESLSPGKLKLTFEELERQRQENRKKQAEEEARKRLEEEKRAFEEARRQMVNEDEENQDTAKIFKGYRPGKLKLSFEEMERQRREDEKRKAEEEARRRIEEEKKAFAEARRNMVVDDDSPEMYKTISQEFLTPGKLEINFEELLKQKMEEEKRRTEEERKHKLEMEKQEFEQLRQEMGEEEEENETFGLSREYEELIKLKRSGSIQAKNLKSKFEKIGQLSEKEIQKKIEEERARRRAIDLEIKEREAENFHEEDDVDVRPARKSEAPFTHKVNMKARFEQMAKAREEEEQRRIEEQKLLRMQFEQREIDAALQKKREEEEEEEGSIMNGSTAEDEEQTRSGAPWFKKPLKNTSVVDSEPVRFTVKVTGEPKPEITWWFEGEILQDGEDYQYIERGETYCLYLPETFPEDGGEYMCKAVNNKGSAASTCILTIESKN
UniProt O43677, whole entry, looked up: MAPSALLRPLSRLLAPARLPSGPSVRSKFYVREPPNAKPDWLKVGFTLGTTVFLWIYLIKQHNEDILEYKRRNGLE
UniProt Q9NV92: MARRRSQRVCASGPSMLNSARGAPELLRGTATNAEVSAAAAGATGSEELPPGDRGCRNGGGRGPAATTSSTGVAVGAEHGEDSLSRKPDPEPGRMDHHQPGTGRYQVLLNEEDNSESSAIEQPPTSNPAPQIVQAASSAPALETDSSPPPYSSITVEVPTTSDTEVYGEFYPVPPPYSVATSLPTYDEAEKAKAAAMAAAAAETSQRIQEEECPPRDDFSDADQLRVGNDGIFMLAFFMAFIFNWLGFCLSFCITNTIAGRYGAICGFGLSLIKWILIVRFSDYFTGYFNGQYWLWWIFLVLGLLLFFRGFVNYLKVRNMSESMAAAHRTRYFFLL
UniProt Q96JN8: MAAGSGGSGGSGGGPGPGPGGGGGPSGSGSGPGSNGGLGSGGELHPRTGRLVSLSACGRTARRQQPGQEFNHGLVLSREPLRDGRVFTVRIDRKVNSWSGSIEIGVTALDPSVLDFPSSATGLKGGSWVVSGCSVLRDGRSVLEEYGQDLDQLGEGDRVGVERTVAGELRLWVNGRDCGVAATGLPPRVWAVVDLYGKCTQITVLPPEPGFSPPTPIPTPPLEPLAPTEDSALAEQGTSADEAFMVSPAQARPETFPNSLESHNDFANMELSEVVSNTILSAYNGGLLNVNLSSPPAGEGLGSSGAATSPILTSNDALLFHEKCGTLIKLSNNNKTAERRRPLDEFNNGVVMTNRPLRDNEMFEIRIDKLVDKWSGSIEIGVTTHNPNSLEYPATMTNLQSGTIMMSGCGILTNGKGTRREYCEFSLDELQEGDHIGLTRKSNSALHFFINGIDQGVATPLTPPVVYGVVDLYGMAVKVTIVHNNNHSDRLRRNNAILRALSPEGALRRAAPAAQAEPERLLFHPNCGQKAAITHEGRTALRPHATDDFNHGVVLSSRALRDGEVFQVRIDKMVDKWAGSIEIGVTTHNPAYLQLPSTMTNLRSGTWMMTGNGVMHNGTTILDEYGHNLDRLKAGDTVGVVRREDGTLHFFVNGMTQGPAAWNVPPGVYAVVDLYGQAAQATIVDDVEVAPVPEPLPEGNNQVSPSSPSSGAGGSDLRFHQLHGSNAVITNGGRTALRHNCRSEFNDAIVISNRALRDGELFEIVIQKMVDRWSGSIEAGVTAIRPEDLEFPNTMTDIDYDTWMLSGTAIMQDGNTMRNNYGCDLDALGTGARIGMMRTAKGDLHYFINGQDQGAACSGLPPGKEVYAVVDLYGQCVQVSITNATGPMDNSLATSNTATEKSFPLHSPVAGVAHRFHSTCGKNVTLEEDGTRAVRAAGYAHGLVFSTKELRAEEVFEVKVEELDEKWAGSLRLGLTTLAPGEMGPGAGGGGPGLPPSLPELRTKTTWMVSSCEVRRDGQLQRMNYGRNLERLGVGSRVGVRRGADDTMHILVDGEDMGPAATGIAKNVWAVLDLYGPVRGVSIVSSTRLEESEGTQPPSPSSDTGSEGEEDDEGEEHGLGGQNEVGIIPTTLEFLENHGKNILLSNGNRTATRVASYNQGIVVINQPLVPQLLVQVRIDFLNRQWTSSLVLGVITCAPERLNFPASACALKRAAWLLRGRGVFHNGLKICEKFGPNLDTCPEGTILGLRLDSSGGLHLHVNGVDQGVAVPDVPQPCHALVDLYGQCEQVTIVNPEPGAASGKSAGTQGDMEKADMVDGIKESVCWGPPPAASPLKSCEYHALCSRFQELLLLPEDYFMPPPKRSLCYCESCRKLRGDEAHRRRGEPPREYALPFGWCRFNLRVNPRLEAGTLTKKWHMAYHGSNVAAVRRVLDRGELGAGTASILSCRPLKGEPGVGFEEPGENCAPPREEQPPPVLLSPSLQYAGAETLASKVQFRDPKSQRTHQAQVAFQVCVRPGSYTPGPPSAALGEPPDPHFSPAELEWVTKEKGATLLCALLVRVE
UniProt P25963: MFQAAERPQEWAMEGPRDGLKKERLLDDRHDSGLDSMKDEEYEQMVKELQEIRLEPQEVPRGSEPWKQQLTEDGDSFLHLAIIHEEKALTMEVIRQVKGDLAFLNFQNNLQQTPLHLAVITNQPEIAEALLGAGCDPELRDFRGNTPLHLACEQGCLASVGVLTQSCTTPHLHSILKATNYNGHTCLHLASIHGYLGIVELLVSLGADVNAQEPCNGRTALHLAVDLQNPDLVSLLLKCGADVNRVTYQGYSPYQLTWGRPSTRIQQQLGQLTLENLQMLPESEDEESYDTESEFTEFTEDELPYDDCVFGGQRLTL
UniProt O95167, whole entry, looked up: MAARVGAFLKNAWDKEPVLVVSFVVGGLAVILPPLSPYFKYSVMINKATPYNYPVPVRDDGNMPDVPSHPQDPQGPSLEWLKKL
UniProt Q16649: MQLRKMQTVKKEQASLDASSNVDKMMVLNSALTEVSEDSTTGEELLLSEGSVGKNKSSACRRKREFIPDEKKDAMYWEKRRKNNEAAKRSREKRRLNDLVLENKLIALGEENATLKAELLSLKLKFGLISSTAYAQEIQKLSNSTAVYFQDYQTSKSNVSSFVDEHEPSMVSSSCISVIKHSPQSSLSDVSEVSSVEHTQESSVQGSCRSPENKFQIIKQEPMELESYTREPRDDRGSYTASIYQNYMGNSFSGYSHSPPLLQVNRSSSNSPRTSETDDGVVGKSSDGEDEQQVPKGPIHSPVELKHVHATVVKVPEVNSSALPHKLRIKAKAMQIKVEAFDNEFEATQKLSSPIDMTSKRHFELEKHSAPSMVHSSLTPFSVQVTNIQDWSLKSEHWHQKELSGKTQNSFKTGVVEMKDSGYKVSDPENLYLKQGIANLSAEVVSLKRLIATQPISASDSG
UniProt Q8NEJ9: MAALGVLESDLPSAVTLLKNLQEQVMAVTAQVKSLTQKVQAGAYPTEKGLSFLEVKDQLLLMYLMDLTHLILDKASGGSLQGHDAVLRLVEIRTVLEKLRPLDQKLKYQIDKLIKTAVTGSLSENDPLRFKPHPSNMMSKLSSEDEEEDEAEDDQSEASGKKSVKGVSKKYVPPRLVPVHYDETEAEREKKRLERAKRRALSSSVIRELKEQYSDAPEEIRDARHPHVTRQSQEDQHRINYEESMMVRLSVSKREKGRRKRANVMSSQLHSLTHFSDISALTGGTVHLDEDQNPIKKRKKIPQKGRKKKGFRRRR

Experiments:
Assay in all cases: log2 fold change, soluble protein after heating vs DMSO (PISA); higher = thermal stabilisation; K562 lysate, 10 uM; active = over 0.2 and 3.5 SD of the protein, either way, in both replicates (recomputed)
[1] = compound: CS(=O)(=O)CCNCc1ccc(-c2ccc3ncnc(Nc4ccc(OCc5cccc(F)c5)c(Cl)c4)c3c2)o1 [lapatinib]
Procedure, shortened: (§1)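 K562 pellets were dounce-homogenised in PBS pH 7.4 with 1 mM MgCl2, and the crude extract at 1 mg/mL protein was treated with 10 μM compound for 30 min. Aliquots were heated for 3 min across 48°C-58°C, pooled, and brought to 0.5% NP-40 at 4°C; soluble protein was the supernatant after 21,000xg for 90 min. Soluble protein was quantified by TMTpro 16plex LC-MS/MS with channel sums equalised, and reported as log2 fold change in thermal stability against DMSO controls, with values from duplicates.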

[2] = compound: C[C@@H](Oc1cc(-c2cnn(C3CCNCC3)c2)cnc1N)c1c(Cl)ccc(F)c1Cl [crizotinib]
Procedure, shortened: as §1

[3] = compound: C[C@H](C1=CC=C(C=C1)C(=O)NC2=C3C=CNC3=NC=C2)N
Procedure, shortened: as §1

[4] = compound: C[C@H](Nc1ncnc2nc[nH]c12)c1cc2cccc(Cl)c2c(=O)n1-c1ccccc1 [duvelisib]
Procedure, shortened: as §1

[5] = compound: Cc1cc(Nc2cc(CN3CCOCC3)c3nc(C)c(Cc4ccc(Cl)cc4F)n3n2)n[nH]1 [gandotinib]
Procedure, shortened: as §1

[6] = compound: Cc1cc(Nc2cc(N3CCN(C)CC3)nc(Sc3ccc(NC(=O)C4CC4)cc3)n2)n[nH]1 [tozasertib]
Procedure, shortened: as §1

[7] = compound: Cc1ccc(-n2nc(C(C)(C)C)cc2NC(=O)Nc2ccc(OCCN3CCOCC3)c3ccccc23)cc1 [doramapimod]
Procedure, shortened: as §1

[8] = compound: Cc1cccc(CC(=O)N2CCc3c2ccc(-c2cn(C)c4ncnc(N)c24)c3F)n1
Procedure, shortened: as §1

[9] = compound: CS(=O)(=O)N1CCN(Cc2cc3nc(-c4cccc5[nH]ncc45)nc(N4CCOCC4)c3s2)CC1 [pictilisib]
Procedure, shortened: as §1

[10] = compound: Cc1ccc(NC(=O)c2ccc(CN3CC[C@H](N(C)C)C3)c(C(F)(F)F)c2)cc1Nc1nccc(-c2cncnc2)n1 [bafetinib]
Procedure, shortened: as §1

Measured: log2 fold change

NKRF isoform 2 (UniProt O15226)
inactive: [1] -0.01 | [2] -0.032 | [3] 0.103 | [4] 0.012 | [5] -0.167 | [6] 0.088 | [7] -0.097 | [8] 0.032

NFE2L2 (UniProt Q16236)
inactive: [2] 0.099 | [7] -0.01

NLRP1 (UniProt Q9C000)
inactive: [2] 0.236 | [4] -0.584 | [6] -0.07 | [7] -0.199

NDST1 (UniProt P52848)
inactive: [1] -0.106 | [9] -0.039 | [2] -0.035 | [4] -0.053 | [6] 0.051 | [7] 0.093 | [10] -0.082

NLK (UniProt Q9UBE8)
inactive: [3] -0.036 | [5] 0.021 | [8] 0.203

NECTIN2 isoform 2 (UniProt Q92692)
inactive: [1] -0.109 | [2] -0.05 | [3] 0.077 | [4] 0.138 | [5] 0.015 | [6] 0.062 | [7] 0.088 | [8] -0.054

NKIRAS1 (UniProt Q9NYS0)
inactive: [1] -0.175 | [3] 0.15 | [4] -0.094 | [5] 0.036 | [6] -0.023 | [8] -0.205

NEK8 (UniProt Q86SG6)
inactive: [3] -0.094 | [5] 0.103 | [8] 0.049

NKX2-2 (UniProt O95096)
inactive: [1] -0.089 | [9] -0.022 | [2] -0.328 | [3] -0.357 | [5] 0.278 | [6] 0.011 | [7] 0.037 | [10] -0.059 | [8] 0.279

NEMP1 (UniProt O14524)
inactive: [9] -0.124 | [2] -0.002 | [7] 0.09 | [10] -0.016

NDRG2 isoform 6 (UniProt Q9UN36)
inactive: [1] 0.087 | [4] 0.016 | [6] -0.018

NDUFB1 (UniProt O75438)
inactive: [9] -0.108 | [2] 0.017 | [3] 0.265 | [4] -0.041 | [5] -0.223 | [7] -0.031 | [10] -0.035 | [8] -0.131

NDUFA7 (UniProt M0R0N0)
inactive: [9] 0.045 | [3] -0.965 | [5] 0.238 | [10] -0.181 | [8] 0.495

NET1 (UniProt Q7Z628)
inactive: [2] -0.122 | [7] -0.133

NDRG2 (UniProt G3V2A6)
inactive: [1] 0.035 | [9] -0.288 | [10] 0.031

NEK5 (UniProt Q6P3R8)
inactive: [1] -0.067 | [3] -0.151 | [4] 0.114 | [5] 0.099 | [6] 0.11 | [8] 0.019

NEXN (UniProt Q0ZGT2)
inactive: [1] 0.066 | [9] -0.137 | [3] -0.239 | [4] -0.088 | [5] 0.172 | [6] -0.237 | [10] 0.043 | [8] 0.198

NFYC isoform 3 (UniProt Q13952)
inactive: [4] 0.026

NDUFC1 (UniProt O43677)
inactive: [4] -0.183 | [6] 0.029

NEO1 (UniProt Q92859)
inactive: [9] -0.043 | [3] -0.248 | [5] -0.03 | [10] -0.244 | [8] 0.166

NDFIP2 (UniProt Q9NV92)
inactive: [2] -0.073 | [3] 0.043 | [5] -0.112 | [7] -0.095 | [8] 0.23

NDFIP1 (UniProt Q9BT67)
inactive: [1] -0.092 | [9] -0.001 | [2] -0.046 | [3] -0.003 | [4] -0.092 | [5] 0.006 | [7] -0.065 | [10] -0.257 | [8] 0.061

NEURL4 (UniProt Q96JN8)
inactive: [1] 0.057 | [2] -0.104 | [3] 0.059 | [4] 0.048 | [5] -0.149 | [6] 0.099 | [7] -0.342 | [8] 0

NFKBIA (UniProt P25963)
inactive: [1] -0.032 | [9] -0.025 | [2] -0.091 | [4] 0.078 | [7] 0.127 | [10] -0.114

NHLRC3 (UniProt Q5JS37)
inactive: [1] -0.046 | [2] 0.023 | [3] 0.01 | [4] 0 | [5] 0.191 | [6] -0.096 | [7] 0.039 | [8] 0.139

NKTR (UniProt P30414)
inactive: [1] -0.015 | [9] -0.08 | [3] -0.44 | [4] 0.168 | [5] 0.358 | [6] -0.1 | [10] -0.178 | [8] 0.431

NEU3 isoform 2 (UniProt Q9UQ49)
inactive: [1] -0.007 | [9] -0.042 | [2] -0.016 | [4] 0.11 | [6] 0.043 | [7] 0.034 | [10] 0

Taken from the results shown (2 entries):
NKTR (UniProt P30414)
inactive: [1] -0.015 | [9] -0.08 | [3] -0.44 | [4] 0.168 | [5] 0.358 | [6] -0.1 | [10] -0.178 | [8] 0.431

NEU3 isoform 2 (UniProt Q9UQ49)
inactive: [1] -0.007 | [9] -0.042 | [2] -0.016 | [4] 0.11 | [6] 0.043 | [7] 0.034 | [10] 0

Additional results

NDUFA3 (UniProt O95167)
inactive: [9] -0.08 | [2] -0.06 | [3] 0.011 | [4] -0.006 | [5] -0.018 | [6] 0.011 | [7] 0.016 | [10] -0.231 | [8] 0.17

NFIL3 (UniProt Q16649)
inactive: [1] -0.122 | [6] 0.322

NLRX1 (UniProt Q86UT6)
inactive: [3] -0.152 | [5] -0.003 | [6] -0.128 | [8] 0.076

NLRC3 isoform 2 (UniProt Q7RTR2)
inactive: [1] -0.013 | [9] -0.051 | [2] -0.101 | [4] 0.067 | [6] 0.045 | [7] 0.067 | [10] -0.253

NIPA1 (UniProt Q7RTP0)
inactive: [1] -0.065 | [9] -0.015 | [2] -0.241 | [3] 0.04 | [5] 0.134 | [7] -0.062 | [10] 0.025 | [8] -0.064

NFAT5 isoform 4 (UniProt O94916)
inactive: [9] -0.138 | [2] -0.028 | [7] -0.158 | [10] -0.053

NFE2L1 (UniProt Q14494)
inactive: [2] 0 | [3] -0.181 | [5] -0.135 | [6] -0.072 | [7] -0.07 | [8] 0.086

NFIX (UniProt Q14938)
inactive: [6] 0.092

NFRKB isoform 2 (UniProt Q6P4R8)
inactive: [1] 0.16 | [2] -0.082 | [3] 0.036 | [5] 0.126 | [6] 0.199 | [7] -0.017 | [8] 0.025

NEU4 (UniProt C9JEA3)
inactive: [9] -0.018 | [2] -0.174 | [3] -0.033 | [4] -0.041 | [5] 0 | [7] 0.083 | [10] -0.119 | [8] 0.038

NGDN (UniProt Q8NEJ9)
inactive: [1] 0.092 | [2] 0.046 | [6] -0.043 | [7] 0.083
